Laboratory results reported in patent publication US8367737B2, “Method of using biothionol and biothionol-like compounds as anti-angiogenic agents” (Southern Research Institute, priority 2007, dated 2013).
Structures can show the parent of a compound that is named as a salt.

Experiments:
Assay type in all cases: cell-based
[1] = test system: arterial endothelia, such as HAEC and HPAEC; test: Cell proliferation assay (CellTiter-Glo), arterial endothelia; details: Homo sapiens; 72 hours of treatment, growth medium
Protocol: (§1) Human primary cell lines, arterial endothelia, such as HAEC and HPAEC, venous endothelia HUVEC (from Cambrex BioScience Rockland Inc.), and lung fibroblasts LL47 (from the American Type Culture Collection) are cultured by following the instruction and used to evaluate the target compounds for their differential activity against human endothelia verses fibroblasts by CellTiter-Glo Luminescent Cell viability Assay. This assay, generating luminescent signals, is based on quantification of ATP levels in cell cultures. Amount of ATP produced in cell culture reflects the number of viable cells. […] Cells are seeded in 96-well plates with their growth medium, about 5×10^3 cell per well. After 24 hours, various doses of the target compounds are added to the cultures, having four replicates for each dose. After 72 hours of treatment, CellTiter-Glo reagent is added to the cultures following the manufacturer's instruction and luminescence is measured. The control groups are given DMSO vehicle only. IC50s of target compounds for endothelia and fibroblasts proliferation in their growth medium are determined based on the dose response curve and plotted against the range of concentrations.

venous endothelia HUVEC = test: Cell proliferation assay (CellTiter-Glo), venous endothelia; details: Homo sapiens, 72 hours of treatment, growth medium
Protocol: as §1

lung fibroblasts LL47 = test: Cell proliferation assay (CellTiter-Glo), fibroblasts; details: Homo sapiens, Fibroblast; 72 hours of treatment, growth medium
Protocol: as §1

Compound | IC50 [1] | IC50 (venous endothelia HUVEC) | IC50 (lung fibroblasts LL47)
CCCCc1oc2ccccc2c1C(=O)c1cc(I)c(OCCN(CC)CC)c(I)c1 [Amiodarone hydrochloride] | 7.5 µM | 8.8 µM | 
CN(C)CCCN1c2ccccc2CCc2ccc(Cl)cc21 [Clomipramine hydrochloride] | 10.8 µM | 4.5 µM | 28 µM
